The values that follow come from paper PMC12077210, “Di-HAMP domains of a cytoplasmic chemoreceptor modulate nucleoid array formation and downstream signaling” (mBio, 2024).

What all share (experiment): EMSA
Holding throughout (conditions): EMSA: 50 mM Tris pH 7.4, 50 mM NaCl, 1 mM DTT, 10% glycerol, 25 C, 30 min, 0.5-2 uM DNA; recombinant protein; residues 1-417; protein details: C-terminal His6 (pHis17)
(In general: Mobility shift assays separate free from complexed probe on a gel.)

The target in data set [1] is T1, FrzCD (EMSA/SEC-MALS) (Myxococcus xanthus) (UniProt P43500).
T1 sequence (looked up): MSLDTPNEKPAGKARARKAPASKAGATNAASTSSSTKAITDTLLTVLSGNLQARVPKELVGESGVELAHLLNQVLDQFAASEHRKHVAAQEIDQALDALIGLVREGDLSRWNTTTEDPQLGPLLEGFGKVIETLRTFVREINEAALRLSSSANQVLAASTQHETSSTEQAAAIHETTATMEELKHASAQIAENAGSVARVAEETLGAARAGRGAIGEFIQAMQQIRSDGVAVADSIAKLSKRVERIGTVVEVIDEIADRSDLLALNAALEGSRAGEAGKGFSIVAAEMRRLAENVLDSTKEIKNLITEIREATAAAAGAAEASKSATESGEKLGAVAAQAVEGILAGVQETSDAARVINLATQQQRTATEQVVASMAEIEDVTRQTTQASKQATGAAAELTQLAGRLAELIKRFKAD

In data set [2] the target is T2, FrzCDΔH1 (EMSA) del32-83 (Myxococcus xanthus) (UniProt P43500).
T2 sequence (looked up): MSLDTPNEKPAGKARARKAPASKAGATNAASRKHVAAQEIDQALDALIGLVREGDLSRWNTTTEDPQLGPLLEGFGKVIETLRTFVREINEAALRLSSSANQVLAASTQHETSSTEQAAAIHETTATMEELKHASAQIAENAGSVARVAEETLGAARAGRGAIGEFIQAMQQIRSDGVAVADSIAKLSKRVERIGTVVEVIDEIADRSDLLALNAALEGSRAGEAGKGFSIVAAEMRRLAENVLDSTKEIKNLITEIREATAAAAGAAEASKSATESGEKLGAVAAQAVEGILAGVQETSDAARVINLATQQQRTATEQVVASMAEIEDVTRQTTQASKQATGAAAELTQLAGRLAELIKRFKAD

Data set [3] concerns the target T3, FrzCDΔH1ΔH2 (EMSA) del32-136 (Myxococcus xanthus) (UniProt P43500).
T3 sequence (looked up): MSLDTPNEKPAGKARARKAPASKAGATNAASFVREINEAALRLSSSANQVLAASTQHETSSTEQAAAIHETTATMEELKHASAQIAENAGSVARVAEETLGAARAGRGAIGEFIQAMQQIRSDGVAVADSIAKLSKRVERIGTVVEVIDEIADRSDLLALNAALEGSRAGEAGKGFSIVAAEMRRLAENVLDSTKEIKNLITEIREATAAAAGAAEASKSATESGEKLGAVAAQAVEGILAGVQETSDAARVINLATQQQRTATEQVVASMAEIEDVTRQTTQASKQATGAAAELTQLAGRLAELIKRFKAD

Data set [4] addresses T4, FrzCDΔH2 (EMSA/SEC-MALS) del84-136 (Myxococcus xanthus) (UniProt P43500).
T4 sequence (looked up): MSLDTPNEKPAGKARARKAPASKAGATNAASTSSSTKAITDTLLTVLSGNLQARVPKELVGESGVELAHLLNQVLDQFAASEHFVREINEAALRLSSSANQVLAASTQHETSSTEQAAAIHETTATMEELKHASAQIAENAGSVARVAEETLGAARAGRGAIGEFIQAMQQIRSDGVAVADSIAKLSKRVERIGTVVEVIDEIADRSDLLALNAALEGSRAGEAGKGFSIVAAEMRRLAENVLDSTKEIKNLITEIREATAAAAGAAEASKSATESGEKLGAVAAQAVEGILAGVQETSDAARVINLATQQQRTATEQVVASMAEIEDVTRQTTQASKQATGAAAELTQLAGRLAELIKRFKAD

For at least one entry, the source does not settle the construct or the ends of the probe. At least one verdict was read from the data and is not stated in words by the source. Tags and fusion partners may be left off the protein sequences shown.

Regarding “CTCACTATAGGG (double strand) [12 bp DNA]”, in data set [1], the binding result was “binds”.
For “CTTGCAGTAGAGCTGACCATGATTACGCCATCAGCAGCTCCAGGTCGTACCTCCAGCTACCAATCCCCG (double strand) [69 bp DNA]”, the binding result in data set [1], in data set [2], in data set [3] and in data set [4] was “binds” each time.
Take “GTCACCTGCTCTAGCTAATAGACTGAGCCGAGGTG (double strand) [35 bp DNA]”: in data set [1], the binding result is “binds”.
Still for that read-out and setting: under “TAATACGACTCACTATAGGG (double strand) [20 bp DNA]” stands “binds”.
